Test in all cases: two-hybrid
Experiment [1] deals with T1, F-BOX STRESS INDUCED 1 (FBS1), full-length, yeast two-hybrid fusion (Arabidopsis thaliana) (UniProt Q8GX77).
T1 sequence: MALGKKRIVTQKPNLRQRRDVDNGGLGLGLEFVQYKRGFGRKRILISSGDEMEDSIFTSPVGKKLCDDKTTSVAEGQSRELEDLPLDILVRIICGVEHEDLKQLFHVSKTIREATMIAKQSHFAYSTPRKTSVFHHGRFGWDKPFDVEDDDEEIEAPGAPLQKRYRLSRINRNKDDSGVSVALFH

Amino acid sequences for entries named in this document (tags omitted).
UniProt Q39255: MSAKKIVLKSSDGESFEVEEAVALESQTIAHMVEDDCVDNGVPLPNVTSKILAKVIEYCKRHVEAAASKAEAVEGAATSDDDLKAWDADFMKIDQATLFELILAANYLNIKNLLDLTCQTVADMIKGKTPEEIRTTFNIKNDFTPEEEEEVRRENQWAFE

The target of experiment [2] is T2, F-BOX STRESS INDUCED 4 (FBS4), yeast two-hybrid fusion (Arabidopsis thaliana) (UniProt Q5XF11).
T2 sequence: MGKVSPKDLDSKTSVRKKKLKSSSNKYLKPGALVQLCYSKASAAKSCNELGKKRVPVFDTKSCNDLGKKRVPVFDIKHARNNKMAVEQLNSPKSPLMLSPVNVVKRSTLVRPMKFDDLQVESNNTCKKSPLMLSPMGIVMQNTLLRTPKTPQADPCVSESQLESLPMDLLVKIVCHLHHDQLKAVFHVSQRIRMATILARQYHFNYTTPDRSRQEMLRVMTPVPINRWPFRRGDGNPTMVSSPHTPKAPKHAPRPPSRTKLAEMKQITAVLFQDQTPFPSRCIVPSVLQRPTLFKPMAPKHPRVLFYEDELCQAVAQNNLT

Experiment [3] addresses T3, F-BOX STRESS INDUCED 2 (FBS2), yeast two-hybrid fusion (Arabidopsis thaliana) (UniProt O65416).
T3 sequence: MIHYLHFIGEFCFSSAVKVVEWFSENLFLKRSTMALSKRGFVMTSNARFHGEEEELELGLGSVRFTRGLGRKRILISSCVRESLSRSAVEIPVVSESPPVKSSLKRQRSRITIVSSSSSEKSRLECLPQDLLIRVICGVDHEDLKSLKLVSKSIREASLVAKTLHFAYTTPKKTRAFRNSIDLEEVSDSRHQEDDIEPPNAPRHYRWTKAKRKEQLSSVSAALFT

The target in experiment [4] is T4, F-BOX STRESS INDUCED 3 (FBS3), yeast two-hybrid fusion (Arabidopsis thaliana) (UniProt Q9S9T6).
T4 sequence: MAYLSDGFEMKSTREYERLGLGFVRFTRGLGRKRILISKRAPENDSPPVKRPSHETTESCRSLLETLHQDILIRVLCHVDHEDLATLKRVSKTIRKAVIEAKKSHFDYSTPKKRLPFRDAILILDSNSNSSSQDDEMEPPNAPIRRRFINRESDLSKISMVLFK

Experiment [5] deals with T1, F-BOX STRESS INDUCED 1 (FBS1), full-length, yeast two-hybrid fusion (Arabidopsis thaliana). The source holds these as a separate data set.

Where two headings read alike, the source gives them in different places. These are yes or no findings as the source states them, for the method shown. Some results given as binding are weak or reduced against the parent protein; the word gives no strength. Tags and fused reporters may be left off the sequences shown.

For the molecule “Arabidopsis SKP1 (ASK1), yeast two-hybrid fusion (from UniProt Q39255 1-160)”, the binding result in experiment [1] is listed as “binds”; in experiment [2], “binds”; in experiment [3], “binds weakly”; in experiment [4], “binds”.

B1: TOPLESS (TPL), yeast two-hybrid fusion (protein, UniProt Q94AI7 1-1131)
chain: MSSLSRELVFLILQFLDEEKFKETVHKLEQESGFFFNMKYFEDEVHNGNWDEVEKYLSGFTKVDDNRYSMKIFFEIRKQKYLEALDKHDRPKAVDILVKDLKVFSTFNEELFKEITQLLTLENFRENEQLSKYGDTKSARAIMLVELKKLIEANPLFRDKLQFPTLRNSRLRTLINQSLNWQHQLCKNPRPNPDIKTLFVDHSCGPPNGARAPSPVNNPLLGGIPKAGGFPPLGAHGPFQPTASPVPTPLAGWMSSPSSVPHPAVSAGAIALGGPSIPAALKHPRTPPTNASLDYPSADSEHVSKRTRPMGISDEVNLGVNMLPMSFSGQAHGHSPAFKAPDDLPKTVARTLSQGSSPMSMDFHPIKQTLLLVGTNVGDIGLWEVGSRERLVQKTFKVWDLSKCSMPLQAALVKEPVVSVNRVIWSPDGSLFGVAYSRHIVQLYSYHGGEDMRQHLEIDAHVGGVNDISFSTPNKQLCVITCGDDKTIKVWDAATGVKRHTFEGHEAPVYSVCPHYKENIQFIFSTALDGKIKAWLYDNMGSRVDYDAPGRWCTTMAYSADGTRLFSCGTSKDGESFIVEWNESEGAVKRTYQGFHKRSLGVVQFDTTKNRYLAAGDDFSIKFWDMDAVQLLTAIDGDGGLQASPRIRFNKEGSLLAVSGNENVIKIMANSDGLRLLHTFENISSESSKPAINSIAAAAAAAATSAGHADRSANVVSIQGMNGDSRNMVDVKPVITEESNDKSKIWKLTEVSEPSQCRSLRLPENLRVAKISRLIFTNSGNAILALASNAIHLLWKWQRNERNATGKATASLPPQQWQPASGILMTNDVAETNPEEAVPCFALSKNDSYVMSASGGKISLFNMMTFKTMATFMPPPPAATFLAFHPQDNNIIAIGMDDSTIQIYNVRVDEVKSKLKGHSKRITGLAFSNVLNVLVSSGADAQLCVWNTDGWEKQRSKVLPLPQGRPNSAPSDTRVQFHQDQAHFLVVHETQLAIYETTKLECMKQWAVRESLAPITHATFSCDSQLVYASFMDATVCVFSSANLRLRCRVNPSAYLPASLSNSNVHPLVIAAHPQEPNMFAVGLSDGGVHIFEPLESEGKWGVAPPAENGSASGAPTAPSVGASASDQPQR
B1: the binding entry in experiment [5] is listed as “no binding”.

The values above are taken from doi:10.1101/2020.12.22.424016.
